From patent publication US20230105029A1

Target: marmoset monkey IL4Rα-his protein (marmoset monkey)
Assay: SPR (Biacore), antibody captured, cal-IL4Rα-his flowed

B1: chimeric antibody C2C1A1A1 (antibody, human IgG4 S228P, kappa, V domains shown)
VH: EVQLVESGGGLVQPGGSLKLSCAASGFTFSTYGMSWVRQTPDKRLELVATINSNGGSTSYPDSVKGRFTISRDNAKNTLYLQMSSLKSEDTAMFYCARFFRFRNAMDYWGQGTSVTVSS
VL: DIQMTQSPASLSASVGETVTITCRTSENIYSYLAWYQQKQGKSPQFLVYNAKTLAEGVPSRFSGSGSGTQFSLNINSLQSEDFGSYYCQHYYGPPTWTFGGGTKLEIKR
- binding: binds

B2: huC2C1A1A1-V14 (antibody, human IgG4 S228P, kappa, V domains shown)
VH: EVQLVESGGGLVQPGGSLRLSCAASGFTFSTYGMSWVRQAPGKGLVWVATINSNGGSTSYPDSVKGRFTISRDNAKNTLYLQMNSLRAEDTAVYYCARFFRFRNAMDYWGQGTLVTVSS
VL: DIQMTQSPSSLSASVGQRVTITCRTSENIYSYLAWYQQKQGKPPRFLIYNAKTLAEGVPSRFSGSGSGTEFTLTITSLQAEDFGVYYCQHYYGPPTWTFGPGTKLEIKR
- binding: binds

B3: chimeric antibody B8G11F2B7G5E8 (antibody, human IgG4 S228P, kappa, V domains shown)
VH: EVQLQQSGADLVRPGASVKLSCTASGFNIKDTYMHWVKQRPEQGLEWVGRIDPTNGYTIYASKFQGKATITADTSSNTAYMQLSSLTSGDTAVYHCVSRRPWFAYWGQGTLVTVSA
VL: DILMTQTPLSLPVSLGAQASISCRSSQSIVHSNGNTYLEWYLQKPGQSPKLLIYKVTNRFSGVPDRFSGSGSGTDFTLKISRVEAEDLGIYYCFQGSHVPYTFGGGTKLEIKR
- binding: binds

B4: huB8G11F2B7G5E8-V14 (antibody, human IgG4 S228P, kappa, V domains shown)
VH: EVQLVQSGAEVKKPGATVKISCKVSGFNIKDTYMHWVKQAPGKGLEWMGRIDPTNGYTIYASKFQGKATITADTSSNTAYMELSSLRSEDTAVYHCVSRRPWFAYWGQGTLVTVSS
VL: B3 VL with L3V, P12S, S14T, L15P, A17Q, Q18P, K50Q, L88V, I90V, G105Q
- binding: binds

B5: huB8G11F2B7G5E8-V2 (antibody, human IgG4 S228P, kappa, V domains shown)
VH: B4 VH with M48V
VL: B3 VL with L3V, P12S, S14T, L15P, A17Q, Q18P, K50Q, L88V, I90V, G105Q
- binding: binds

B6: huB8G11F2B7G5E8-V4 (antibody, human IgG4 S228P, kappa, V domains shown)
VH: B4 VH with V24A
VL: B3 VL with L3V, P12S, S14T, L15P, A17Q, Q18P, K50Q, L88V, I90V, G105Q
- binding: binds

Residue numbers refer to the chain shown, from its start. These are yes or no findings as the source states them, for the method shown. Binding can be weak; no strength is given.
